Test results from US20030130174A1, “Glycosulfopeptide inhibitors of leukocyte rolling and methods of use thereof” (priority 2001, published 2003).
At least one peptide structure holds a part that was inferred or is arguable (an end, a ring closure or a residue). Where a SMILES comes first, the peptide text is derived from it. [ ]: non-standard residue; d: D form. The star is where a group is joined. X1 = CC(=O)N[C@@H]1[C@@H](O[C@@H]2O[C@H](CO)[C@H](O)[C@H](O)[C@H]2O)[C@@H](O)[C@@H](CO[C@@H]2O[C@H](CO)[C@@H](O[C@@H]3O[C@H](CO)[C@H](O)[C@H](O[C@]4(C(=O)O)C[C@H](O)[C@@H](NC(C)=O)[C@H]([C@H](O)[C@H](O)CO)O4)[C@H]3O)[C@H](O[C@@H]3O[C@@H](C)[C@@H](O)[C@@H](O)[C@@H]3O)[C@H]2NC(C)=O)O[C@@H]1*; sY = N[C@@H](Cc1ccc(OS(=O)(=O)O)cc1)C(=O)O

System: P-selectin-dependent leukocyte rolling
Experiment: Intravital microscopy of mouse cremaster muscle, surgically induced leukocyte rolling
Format: in vivo, C57BL/6 mice

CC(=O)N[C@H]1[C@H](OC[C@H]2O[C@H](O[C@H](C)[C@H](NC(=O)[C@H](CCC(=O)O)NC(=O)[C@@H]3CCCN3C(=O)[C@H](CC(C)C)NC(=O)[C@H](Cc3ccccc3)NC(=O)[C@H](CC(=O)O)NC(=O)[C@H](Cc3ccc(OS(=O)(=O)O)cc3)NC(=O)[C@H](CC(=O)O)NC(=O)[C@H](CC(C)C)NC(=O)[C@H](Cc3ccc(OS(=O)(=O)O)cc3)NC(=O)[C@H](CCC(=O)O)NC(=O)[C@H](Cc3ccc(OS(=O)(=O)O)cc3)NC(=O)[C@@H](N)CCC(=O)O)C(=O)N[C@@H](CCC(=O)O)C(=O)N3CCC[C@H]3C(=O)N3CCC[C@H]3C(=O)N[C@@H](CCC(=O)O)C(=O)N[C@@H](CS)C(=O)O)[C@H](NC(C)=O)[C@@H](O[C@@H]3O[C@H](CO)[C@H](O)[C@H](O)[C@H]3O)[C@H]2O)O[C@H](CO)[C@@H](O[C@@H]2O[C@H](CO)[C@H](O)[C@H](O[C@]3(C(=O)O)C[C@H](O)[C@@H](NC(C)=O)[C@H]([C@H](O)[C@H](O)CO)O3)[C@H]2O)[C@@H]1O[C@@H]1O[C@@H](C)[C@@H](O)[C@@H](O)[C@@H]1O [2-GSP-6] (H-E[sY]E[sY]LD[sY]DFLPET(X1)EPPEC-OH)
Character and duration of the effects on leukocyte rolling (10 min observation, FIG. 9): significant but short lived | Extent of inhibition of P-selectin dependent rolling (comparison) (mouse cremaster): to a greater extent than 4-GSP-6 | Effect on pre-existing P-selectin dependent leukocyte rolling (mouse cremaster, injected 31 min after surgery, FIG. 8): reduced pre-existing P-selectin dependent leukocyte rolling
